“Also recorded” adds a separate entry of the source. At least one compound was matched to its structure with a doubt left. Some results were stated once for a whole list of compounds, not compound by compound.
Key:
LPS-induced serum TNF-α = test: sub-lethal LPS-induced endotoxemia assay; type: in vivo, adult female CD-1 mice; details: for dose significantly reducing TNF-α: administered separately (˜33 μg/kg bodyweight); for reduction of TNF-α in response to an LPS injection: administered separately, at the higher doses tested (FIG. 1, FIG. 2)
From the text: In this assay, mice are given a non-specific pro-inflammatory challenge using bacterial endotoxin (LPS), and the extent of the systemic inflammatory response (measured by serum levels of the central pro-inflammatory cytokine TNF-α, which is essentially absent from the blood under normal conditions, but is rapidly elevated in response to a wide range of inflammatory stimuli). We have selected this model, even though it is not, itself, a particularly close model of any human inflammatory disease condition, because TNF-α is known to be important in very many diseases (including rheumatoid arthritis, autoimmune disorders, Crohn's Disease, atherosclerosis, asthma and many more). Consequently, agents which suppress TNF-α production are already used clinically (e.g. etanercept (Enbrel™) and other anti-TNF-α antibody products, such as infliximab (Remicade™) and adalimumab (Humira™)) to treat a wide range of such diseases.
Mice (adult female CD-1 mice in groups of 6) were pretreated with various doses of each compound, either by the subcutaneous route 30 mins prior to LPS challenge, or by the oral route (via gavage) 60 mins prior to LPS. The mice were then challenged with an intraperitoneal injection of 750 μg of bacterial LPS and sacrificed 2 hours later. Serum was prepared from a terminal bleed by cardiac puncture, and the concentration of TNF-α determined by ELISA (R&D Systems). In each experiment, a group of 6 mice receive no LPS to act as a negative control, and a second group receive only LPS (with no candidate inhibitor). The level of TNF-α in serum from these animals which received LPS without drug pre-treatment is arbitrarily set to 100% (and is typically of the order of 6,000 pg/ml, compared with levels of <10 pg/ml among the negative control group, which received no LPS).

[1] = tested on: leukocyte recruitment into the lung; test: ovalbumin-sensitised rat model of asthma: total BAL leukocyte count; type: in vivo, Brown Norway rats; details: daily oral; for inhibition of leukocyte accumulation in the lung: high dose alone: B′ 0.3 mg/kg or DMX 1 mg/kg, day 8 to 21
Experimental: (§1) Briefly, adult Brown Norway rats (200-300 g body weight; n=10 per group) are sensitised by a single interperitoneal injection of 0.1 mg Ovalbumin on day 0. Each rat then receives an intratracheal challenge with a solution of 1% ovalbumin (w/v) on day 8, and with 2% ovalbumin (w/v) on days 15, 18 and 21. The animals are then sacrificed 3 hours after the final challenge on day 21. Note that ovalbumin (Sigma; purest available grade) can be made endotoxin-free by passage over EndoTrap Red columns (purchased from Cambrex; used in accordance with the manufacturer's instructions), and the endotoxin level confirmed as <5 EU/mg protein using the LAL assay (QCL-1000; Cambrex; performed in accordance with the manufacturer's instructions; 1 mg of standard endotoxin contains ˜900,000 EU/mg). This ensures that the lung inflammation response results from the allergic response to the ovalbumin protein, rather than from unintended LPS stimulation which occurs even with the highest purity grade commercial ovalbumin preparations, and therefore ensures the model more closely represents the underlying molecular pathology of human asthma.
One group of mice (acting as a baseline control) receives no ovalbumin challenges, but are otherwise treated identically. A second group (positive control) receives the challenges but no drug treatment. Further groups are treated identically, but receive daily dosage with: (a) (S)-3-(2′,2′-dimethylpropanoylamino)-tetrahydropyridin-2-one (B′) at a dose of either 0.3 mg/kg or 0.03 mg/kg via oral gavage from day 8 until day 21, with dosage being given 1 hr prior to any subsequent challenge with ovalbumin made on the same day. […]
On sacrifice, total lung leukocyate recruitment is assessed by performing a broncheoalveolar lavage (BAL) using 4 lots of 3 ml sterile phosphate-buffered saline introduced through a tracheal cannula. For each animal, the BAL washes are combined, and the total cell population counted (using a haemocytometer).

[2] = tested on: Th1/Th2 polarisation axis; test: ovalbumin-sensitised rat model of asthma: splenocyte Th1/Th2 ratio by flow cytometry; type: in vivo, Brown Norway rats; details: high dose DMX (1 mg/kg), compared with B′
Experimental: as §1, with “asthma. […]” for “asthma.”
The spleen is also removed from each mouse and placed in RPMI+10% FCS+antibiotics. […] The resulting cell suspensions are then centrifuged (328 g; 5 mins) and washed in RPMI+10% FCS+antibiotics, before being resuspended in fresh media and counted using a haemocytometer. […]

Row | Molecule | dose significantly reducing TNF-α (LPS-induced serum TNF-α) | reduction of TNF-α in response to an LPS injection (LPS-induced serum TNF-α) | anti-inflammatory effect on the TNF-α response (LPS-induced serum TNF-α; administered separately: 0.3 μg per mouse DMX or 0.1 μg/mouse B) | inhibition of leukocyte accumulation in the lung [1] | effect on leukocyte accumulation in the lung ([1]; low dose alone: 0.03 mg/kg B′ or 0.01 mg/kg DMX) | re-balancing of the Th1/Th2 axis [2]
1 | (S)-3-(adamantylamino)-caprolactam [B] | ≤ 1 μg per mouse | at least 80% |  |  |  | 
2 | C[C@@H]1C[C@H]2[C@@H]3CCC4=CC(=O)C=C[C@]4(C)[C@@]3(F)[C@@H](O)C[C@]2(C)[C@@]1(O)C(=O)CO [DMX, Dexamethasone, reference compound] | ≤ 1 μg per mouse | at least 80% | minor anti-inflammatory effect which was not statistically significant in every experiment | more than 80% | ineffective; also recorded: neither compound, when administered alone, has a statistically significant effect | significantly less effective at re-balancing the immune system than treatment with B′
3 | CC(C)(C)C(=O)N[C@H]1CCCNC1=O [B′, (S)-3-(2′,2′-dimethylpropanoylamino)-tetrahydropyridin-2-one] |  |  |  | more than 80% |  | 
